Marks after values point to notes of the source that are not given here.
Settings: 10 mg/kg iv, 9 normalized from 5 mg/kg, 24 from 1 mg/kg, 20 from full PK

mouse plasma level iv, 1 h (1 h): 877 (±215) ^f nM | mouse plasma level iv, 6 h (6 h): 74 (±19) ^f nM
SMILES: CNc1cc(Nc2cnc(C#N)c(O[C@@H]3CCNC3)n2)ncc1C(=O)OC [Compound 9]

— paper PMC3506129 (Journal of Medicinal Chemistry, 2012)
